Results as given in patent publication US8513394B2, “Saccharide fluorescent substrates, preparation method and uses thereof” (Commissariat a l'Energie Atomique, priority 2005, dated 2013).

Test: Emission spectra after excitation at 600 nm: inhibition of the fluorophore's fluorescence in the intact substrate
Format: physicochemical
Details: excitation 600 nm

Gal(N-Cy5)-QSY® 21 [compound of formula (8b)]
inhibition of the fluorescence of the fluorophore (compared with Cy5 alone): 99.8%

Gal(N-QSY® 21)-Alexa Fluoro 633 [compound of formula (8a)]
inhibition of the fluorescence of the fluorophore (compared with Alexa Fluor 633 alone): 99.2%
